In patent publication US20240408112A1, “METHOD FOR PREVENTING OR TREATING PULMONARY ARTERIAL HYPERTENSION BY USING 7-DEHYDROCHOLESTEROLS OR SALTS, OXIDES, METABOLITES, OR DERIVATIVES THEREOF” (EXCELSIOR PHARMATECH LABS., priority 2023, published 2024):
Some results were stated once for a whole list of compounds, not compound by compound.

Test system: TGF-β-stimulated PAI-1 promoter activity
Assay: TGF-β stimulated Pai-1 luciferase assay in MLECs-clone32 cells
Format: cell-based
Details: effect increased with concentration
From the text: TGF-β Stimulated Pai-1 Luciferase Assay
MLECs-clone32 cell line was used to measure the impact of different compounds on the downstream gene, plasminogenactivator inhibitor 1 (PAI-1) performance stimulated by TGF-β. MLECs-clone32 is an expression construct that is stably transfected for the Mv1Lu cell line, and the expression construct PAI-1 Luciferase contains a truncated (PAI-1) promoter fused to the firefly luciferase reporter gene^11,12. The activity stimulated by the truncated PAI-I promoter was quantified by using a luciferase assay. The luciferase activity stimulated by TGF-β in cells without compound treatment was set as 100%, and the effects of each compound on TGF-β-stimulated PAI-I promoter activity were compared. The steps for measuring Pai-1 luciferase activity include using a 96-well plate (DMEM medium containing 10% FBS), seeding each well with 1.5×10^5 cells, and culturing in an incubator overnight. After discarding the medium the next day, cells in DMEM medium with or without the addition of test compounds were treated with recombinant TGF-β (50 pM) and allowed to react in a 37° C. incubator for 4 hours. The cell culture medium was aspirated, washed with PBS, and the activity of Pai-1 luciferase was evaluated by luciferase assay.

| SMILES | Concentration above which a significant inhibitory effect on TGF-β-stimulated Pai-1 luciferase activity is seen |
| --- | --- |
| CC(C)CCCC(C)C1CCC2C3=CC=C4CC(O)CCC4(C)C3CCC21C (stereo not drawn) [Code 039, 7-DHC] | exceeds 10 μM |
| O=c1cc(-c2ccccc2)oc2cc(O)c(O)c(O)c12 [Code 042, Baicalein] | exceeds 10 μM |
| CC(C)CCC[C@@H](C)[C@H]1CC[C@H]2C34C=CC5(C[C@@H](OC(=O)CBr)CC[C@]5(C)[C@H]3CC[C@]12C)n1c(=O)n(C)c(=O)n14 (stereo partly drawn) [Code 203, MeTC7] | exceeds 10 μM |
